According to PMC6904742:
Results are given in words; binding and its absence hold for the method and conditions named. Binding seen in cells or lysates may run through a third protein. Some results given as binding are weak or reduced against the parent protein; the word gives no strength. For part of these data: Sequences can lack the tags named with a protein.

By UniProt entry, the sequences of proteins in these tests, tags left out.
UniProt Q5SW79: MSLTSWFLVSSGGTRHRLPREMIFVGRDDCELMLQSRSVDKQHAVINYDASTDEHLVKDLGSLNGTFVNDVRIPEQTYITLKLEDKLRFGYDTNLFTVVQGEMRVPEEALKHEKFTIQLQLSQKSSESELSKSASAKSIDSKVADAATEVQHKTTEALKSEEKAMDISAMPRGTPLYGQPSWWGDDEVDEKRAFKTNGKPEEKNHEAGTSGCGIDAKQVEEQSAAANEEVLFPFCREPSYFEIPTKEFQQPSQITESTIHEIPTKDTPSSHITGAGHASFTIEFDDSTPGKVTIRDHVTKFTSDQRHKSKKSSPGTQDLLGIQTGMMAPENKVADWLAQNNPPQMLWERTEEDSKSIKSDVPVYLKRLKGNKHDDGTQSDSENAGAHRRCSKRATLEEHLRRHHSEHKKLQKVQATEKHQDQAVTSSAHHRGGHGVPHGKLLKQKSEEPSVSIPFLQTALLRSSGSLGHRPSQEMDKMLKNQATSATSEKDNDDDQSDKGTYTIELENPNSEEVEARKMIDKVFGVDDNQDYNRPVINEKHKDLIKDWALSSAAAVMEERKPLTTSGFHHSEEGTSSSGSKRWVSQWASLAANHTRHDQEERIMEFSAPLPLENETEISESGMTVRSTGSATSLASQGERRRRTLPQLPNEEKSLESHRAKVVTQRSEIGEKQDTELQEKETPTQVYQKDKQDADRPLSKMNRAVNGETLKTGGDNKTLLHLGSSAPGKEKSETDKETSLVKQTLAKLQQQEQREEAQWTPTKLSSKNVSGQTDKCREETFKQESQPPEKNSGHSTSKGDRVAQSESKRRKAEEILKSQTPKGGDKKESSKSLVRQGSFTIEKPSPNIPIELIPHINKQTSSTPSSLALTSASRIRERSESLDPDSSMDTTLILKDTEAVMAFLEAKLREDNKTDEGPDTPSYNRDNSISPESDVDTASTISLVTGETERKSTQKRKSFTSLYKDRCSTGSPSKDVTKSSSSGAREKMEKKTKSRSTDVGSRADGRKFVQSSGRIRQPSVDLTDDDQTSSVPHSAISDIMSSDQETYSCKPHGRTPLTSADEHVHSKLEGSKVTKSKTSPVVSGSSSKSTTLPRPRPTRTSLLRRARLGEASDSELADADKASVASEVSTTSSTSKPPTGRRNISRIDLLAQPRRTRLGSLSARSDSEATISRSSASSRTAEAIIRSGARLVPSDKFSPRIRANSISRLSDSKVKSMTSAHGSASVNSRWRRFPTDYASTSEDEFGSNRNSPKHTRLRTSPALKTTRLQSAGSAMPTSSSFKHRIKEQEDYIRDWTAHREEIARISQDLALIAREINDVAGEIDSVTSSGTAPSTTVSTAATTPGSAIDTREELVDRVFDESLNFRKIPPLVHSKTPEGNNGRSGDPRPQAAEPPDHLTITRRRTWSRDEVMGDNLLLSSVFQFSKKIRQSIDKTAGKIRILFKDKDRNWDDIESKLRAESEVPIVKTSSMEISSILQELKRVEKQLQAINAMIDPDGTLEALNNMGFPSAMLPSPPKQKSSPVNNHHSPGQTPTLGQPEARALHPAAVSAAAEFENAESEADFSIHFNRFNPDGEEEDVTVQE
UniProt Q8NHV4: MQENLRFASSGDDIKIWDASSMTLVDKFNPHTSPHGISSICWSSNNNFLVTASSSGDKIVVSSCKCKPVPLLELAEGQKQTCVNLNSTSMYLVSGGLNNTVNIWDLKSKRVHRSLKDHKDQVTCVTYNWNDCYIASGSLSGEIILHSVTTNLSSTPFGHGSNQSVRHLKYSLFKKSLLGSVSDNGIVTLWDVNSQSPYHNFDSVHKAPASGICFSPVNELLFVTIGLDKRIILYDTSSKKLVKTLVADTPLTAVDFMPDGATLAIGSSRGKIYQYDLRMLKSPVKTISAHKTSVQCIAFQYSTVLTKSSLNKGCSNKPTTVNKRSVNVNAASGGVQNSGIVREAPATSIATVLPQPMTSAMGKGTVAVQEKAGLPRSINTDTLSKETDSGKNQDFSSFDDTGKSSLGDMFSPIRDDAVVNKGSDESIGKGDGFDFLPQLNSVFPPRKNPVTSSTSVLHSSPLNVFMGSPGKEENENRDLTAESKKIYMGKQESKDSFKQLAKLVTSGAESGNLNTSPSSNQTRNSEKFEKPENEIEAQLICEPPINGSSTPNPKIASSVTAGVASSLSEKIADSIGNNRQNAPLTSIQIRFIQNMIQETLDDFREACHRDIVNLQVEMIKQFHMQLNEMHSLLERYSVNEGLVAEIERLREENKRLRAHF

Experiments:
Test in all cases: pull-down; purified GST fusion proteins incubated with 293T lysate; pull-downs analysed by western blot for B55α; only the target purified
GST-CEP170 = GST-CEP170 (UniProt Q5SW79)
GST-HAUS6 = biological target: T1, GST-HAUS6 (UniProt Q7Z4H7)
T1 sequence: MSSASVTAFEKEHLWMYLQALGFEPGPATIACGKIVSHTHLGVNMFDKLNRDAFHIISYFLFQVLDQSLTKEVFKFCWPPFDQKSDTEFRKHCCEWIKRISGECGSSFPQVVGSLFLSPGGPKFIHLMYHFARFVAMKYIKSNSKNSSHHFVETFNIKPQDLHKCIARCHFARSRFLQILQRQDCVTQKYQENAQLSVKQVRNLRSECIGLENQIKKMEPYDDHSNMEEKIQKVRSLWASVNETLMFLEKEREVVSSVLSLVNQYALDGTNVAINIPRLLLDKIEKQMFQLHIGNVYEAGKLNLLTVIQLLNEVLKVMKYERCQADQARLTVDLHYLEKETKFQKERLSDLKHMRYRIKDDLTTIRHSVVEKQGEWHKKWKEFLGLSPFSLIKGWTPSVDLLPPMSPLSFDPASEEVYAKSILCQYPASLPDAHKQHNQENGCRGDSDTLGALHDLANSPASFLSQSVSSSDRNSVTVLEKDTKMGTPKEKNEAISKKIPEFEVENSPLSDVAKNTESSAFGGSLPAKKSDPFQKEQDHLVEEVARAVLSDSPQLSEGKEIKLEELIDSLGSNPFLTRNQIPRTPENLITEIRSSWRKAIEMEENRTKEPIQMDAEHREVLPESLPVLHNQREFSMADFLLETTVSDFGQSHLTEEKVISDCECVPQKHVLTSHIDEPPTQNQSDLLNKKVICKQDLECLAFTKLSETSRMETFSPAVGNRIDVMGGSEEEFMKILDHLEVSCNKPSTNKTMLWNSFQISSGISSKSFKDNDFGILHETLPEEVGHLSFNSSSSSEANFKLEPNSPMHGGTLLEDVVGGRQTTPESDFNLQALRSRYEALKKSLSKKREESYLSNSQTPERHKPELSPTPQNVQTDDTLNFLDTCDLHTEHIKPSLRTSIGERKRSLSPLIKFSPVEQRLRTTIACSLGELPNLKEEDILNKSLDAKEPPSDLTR

GST-NEDD1 = GST-NEDD1 (UniProt Q8NHV4)

binding (GST-CEP170): binds
binding (GST-HAUS6): binds
binding (GST-NEDD1): binds
B1: B55α regulatory subunit of PP2A (protein, UniProt P63151 1-447)
chain: MAGAGGGNDIQWCFSQVKGAVDDDVAEADIISTVEFNHSGELLATGDKGGRVVIFQQEQENKIQSHSRGEYNVYSTFQSHEPEFDYLKSLEIEEKINKIRWLPQKNAAQFLLSTNDKTIKLWKISERDKRPEGYNLKEEDGRYRDPTTVTTLRVPVFRPMDLMVEASPRRIFANAHTYHINSISINSDYETYLSADDLRINLWHLEITDRSFNIVDIKPANMEELTEVITAAEFHPNSCNTFVYSSSKGTIRLCDMRASALCDRHSKLFEEPEDPSNRSFFSEIISSISDVKFSHSGRYMMTRDYLSVKIWDLNMENRPVETYQVHEYLRSKLCSLYENDCIFDKFECCWNGSDSVVMTGSYNNFFRMFDRNTKRDITLEASRENNKPRTVLKPRKVCASGKRKKDEISVDSLDFNKKILHTAWHPKENIIAVATTNNLYIFQDKVN
